By UniProt entry, the sequences of proteins in these tests, tags left out. Residues count along the entry.
UniProt P10912, residues 19-638: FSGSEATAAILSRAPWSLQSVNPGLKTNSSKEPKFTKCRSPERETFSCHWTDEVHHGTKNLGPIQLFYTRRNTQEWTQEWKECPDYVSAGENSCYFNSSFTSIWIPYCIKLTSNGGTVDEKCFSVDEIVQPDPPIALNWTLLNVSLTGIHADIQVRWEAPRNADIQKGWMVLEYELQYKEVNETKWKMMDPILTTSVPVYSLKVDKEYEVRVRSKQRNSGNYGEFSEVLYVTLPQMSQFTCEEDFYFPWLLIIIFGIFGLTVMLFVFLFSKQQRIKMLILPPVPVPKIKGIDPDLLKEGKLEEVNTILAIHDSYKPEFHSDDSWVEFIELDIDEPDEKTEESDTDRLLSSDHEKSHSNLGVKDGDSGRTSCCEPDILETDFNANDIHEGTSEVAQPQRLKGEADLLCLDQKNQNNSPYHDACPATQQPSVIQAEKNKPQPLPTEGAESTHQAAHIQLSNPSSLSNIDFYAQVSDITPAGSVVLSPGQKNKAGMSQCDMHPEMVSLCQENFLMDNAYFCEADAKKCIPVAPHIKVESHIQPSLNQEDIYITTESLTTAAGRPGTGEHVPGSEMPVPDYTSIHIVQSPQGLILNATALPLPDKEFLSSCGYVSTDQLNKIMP
UniProt P68104: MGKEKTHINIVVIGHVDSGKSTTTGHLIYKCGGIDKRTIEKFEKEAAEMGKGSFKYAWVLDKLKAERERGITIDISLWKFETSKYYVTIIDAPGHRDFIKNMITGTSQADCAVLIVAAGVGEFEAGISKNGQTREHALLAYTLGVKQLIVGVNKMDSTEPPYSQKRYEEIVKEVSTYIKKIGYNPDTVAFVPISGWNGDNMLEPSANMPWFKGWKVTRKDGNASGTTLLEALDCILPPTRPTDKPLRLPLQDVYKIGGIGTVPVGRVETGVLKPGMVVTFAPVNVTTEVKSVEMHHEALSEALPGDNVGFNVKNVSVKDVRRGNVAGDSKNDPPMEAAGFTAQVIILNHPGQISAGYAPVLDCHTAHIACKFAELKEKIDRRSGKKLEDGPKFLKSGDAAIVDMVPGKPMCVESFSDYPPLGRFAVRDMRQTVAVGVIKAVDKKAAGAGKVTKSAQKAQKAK
UniProt Q15008: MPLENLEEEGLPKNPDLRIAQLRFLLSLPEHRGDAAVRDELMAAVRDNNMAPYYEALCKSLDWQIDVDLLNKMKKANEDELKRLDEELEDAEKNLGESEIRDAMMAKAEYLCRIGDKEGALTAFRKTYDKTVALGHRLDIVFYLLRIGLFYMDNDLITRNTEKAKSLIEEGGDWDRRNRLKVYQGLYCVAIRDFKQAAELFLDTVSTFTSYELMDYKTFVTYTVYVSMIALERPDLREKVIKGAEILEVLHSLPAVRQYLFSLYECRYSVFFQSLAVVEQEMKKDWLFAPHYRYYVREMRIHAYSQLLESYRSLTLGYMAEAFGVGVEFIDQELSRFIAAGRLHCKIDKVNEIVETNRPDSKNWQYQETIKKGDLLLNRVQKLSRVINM
UniProt P45974: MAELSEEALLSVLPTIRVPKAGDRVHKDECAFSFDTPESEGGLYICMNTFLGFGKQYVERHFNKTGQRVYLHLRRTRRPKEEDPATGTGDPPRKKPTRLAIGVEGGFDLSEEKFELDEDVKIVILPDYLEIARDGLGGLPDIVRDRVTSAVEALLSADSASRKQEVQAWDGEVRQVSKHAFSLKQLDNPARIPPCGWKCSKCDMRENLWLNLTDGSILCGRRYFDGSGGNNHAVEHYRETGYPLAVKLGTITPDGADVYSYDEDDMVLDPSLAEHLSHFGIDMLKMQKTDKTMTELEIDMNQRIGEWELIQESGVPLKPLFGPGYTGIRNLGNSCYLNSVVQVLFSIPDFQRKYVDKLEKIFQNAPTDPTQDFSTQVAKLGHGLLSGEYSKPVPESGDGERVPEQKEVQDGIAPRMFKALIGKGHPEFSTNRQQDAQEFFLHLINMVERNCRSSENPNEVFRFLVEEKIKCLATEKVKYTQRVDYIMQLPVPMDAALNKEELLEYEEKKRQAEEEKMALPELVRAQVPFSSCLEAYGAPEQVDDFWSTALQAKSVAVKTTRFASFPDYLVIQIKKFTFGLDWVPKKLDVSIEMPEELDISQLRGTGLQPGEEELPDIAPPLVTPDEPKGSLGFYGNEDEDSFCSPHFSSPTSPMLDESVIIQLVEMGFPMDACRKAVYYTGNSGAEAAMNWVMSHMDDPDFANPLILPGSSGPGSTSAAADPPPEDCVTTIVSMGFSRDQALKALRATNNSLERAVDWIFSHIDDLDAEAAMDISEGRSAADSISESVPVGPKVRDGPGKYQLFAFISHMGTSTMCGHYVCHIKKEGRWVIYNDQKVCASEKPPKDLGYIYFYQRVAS
UniProt P63241: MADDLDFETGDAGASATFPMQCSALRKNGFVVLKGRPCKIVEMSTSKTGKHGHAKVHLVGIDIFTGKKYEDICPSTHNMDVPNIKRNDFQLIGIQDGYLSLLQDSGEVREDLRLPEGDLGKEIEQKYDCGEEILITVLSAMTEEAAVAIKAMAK
UniProt P11142: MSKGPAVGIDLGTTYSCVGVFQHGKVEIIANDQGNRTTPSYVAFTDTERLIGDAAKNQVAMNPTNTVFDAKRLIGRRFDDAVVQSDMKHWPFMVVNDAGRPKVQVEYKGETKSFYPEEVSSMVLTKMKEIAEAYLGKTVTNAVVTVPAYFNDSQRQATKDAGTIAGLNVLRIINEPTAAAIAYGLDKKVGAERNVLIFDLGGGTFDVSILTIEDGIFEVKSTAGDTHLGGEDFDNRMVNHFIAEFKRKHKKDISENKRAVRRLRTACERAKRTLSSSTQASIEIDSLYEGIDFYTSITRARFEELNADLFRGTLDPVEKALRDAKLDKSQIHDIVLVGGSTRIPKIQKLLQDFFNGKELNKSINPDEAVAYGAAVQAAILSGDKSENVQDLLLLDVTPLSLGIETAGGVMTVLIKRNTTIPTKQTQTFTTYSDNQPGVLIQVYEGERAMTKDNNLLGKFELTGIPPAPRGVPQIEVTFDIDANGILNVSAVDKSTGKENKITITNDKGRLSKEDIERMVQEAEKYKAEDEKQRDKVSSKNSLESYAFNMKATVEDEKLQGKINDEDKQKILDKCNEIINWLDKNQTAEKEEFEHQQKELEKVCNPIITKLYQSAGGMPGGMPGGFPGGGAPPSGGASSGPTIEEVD
UniProt O15212: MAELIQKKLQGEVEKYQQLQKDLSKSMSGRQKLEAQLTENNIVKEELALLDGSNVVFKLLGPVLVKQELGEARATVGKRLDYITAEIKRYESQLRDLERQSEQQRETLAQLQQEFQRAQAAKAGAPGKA
UniProt Q9UHV9: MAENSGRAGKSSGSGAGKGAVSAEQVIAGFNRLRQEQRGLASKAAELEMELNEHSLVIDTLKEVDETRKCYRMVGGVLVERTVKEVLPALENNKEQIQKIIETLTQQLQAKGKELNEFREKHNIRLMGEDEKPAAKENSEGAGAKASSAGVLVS
UniProt P11047, residues 34-1609: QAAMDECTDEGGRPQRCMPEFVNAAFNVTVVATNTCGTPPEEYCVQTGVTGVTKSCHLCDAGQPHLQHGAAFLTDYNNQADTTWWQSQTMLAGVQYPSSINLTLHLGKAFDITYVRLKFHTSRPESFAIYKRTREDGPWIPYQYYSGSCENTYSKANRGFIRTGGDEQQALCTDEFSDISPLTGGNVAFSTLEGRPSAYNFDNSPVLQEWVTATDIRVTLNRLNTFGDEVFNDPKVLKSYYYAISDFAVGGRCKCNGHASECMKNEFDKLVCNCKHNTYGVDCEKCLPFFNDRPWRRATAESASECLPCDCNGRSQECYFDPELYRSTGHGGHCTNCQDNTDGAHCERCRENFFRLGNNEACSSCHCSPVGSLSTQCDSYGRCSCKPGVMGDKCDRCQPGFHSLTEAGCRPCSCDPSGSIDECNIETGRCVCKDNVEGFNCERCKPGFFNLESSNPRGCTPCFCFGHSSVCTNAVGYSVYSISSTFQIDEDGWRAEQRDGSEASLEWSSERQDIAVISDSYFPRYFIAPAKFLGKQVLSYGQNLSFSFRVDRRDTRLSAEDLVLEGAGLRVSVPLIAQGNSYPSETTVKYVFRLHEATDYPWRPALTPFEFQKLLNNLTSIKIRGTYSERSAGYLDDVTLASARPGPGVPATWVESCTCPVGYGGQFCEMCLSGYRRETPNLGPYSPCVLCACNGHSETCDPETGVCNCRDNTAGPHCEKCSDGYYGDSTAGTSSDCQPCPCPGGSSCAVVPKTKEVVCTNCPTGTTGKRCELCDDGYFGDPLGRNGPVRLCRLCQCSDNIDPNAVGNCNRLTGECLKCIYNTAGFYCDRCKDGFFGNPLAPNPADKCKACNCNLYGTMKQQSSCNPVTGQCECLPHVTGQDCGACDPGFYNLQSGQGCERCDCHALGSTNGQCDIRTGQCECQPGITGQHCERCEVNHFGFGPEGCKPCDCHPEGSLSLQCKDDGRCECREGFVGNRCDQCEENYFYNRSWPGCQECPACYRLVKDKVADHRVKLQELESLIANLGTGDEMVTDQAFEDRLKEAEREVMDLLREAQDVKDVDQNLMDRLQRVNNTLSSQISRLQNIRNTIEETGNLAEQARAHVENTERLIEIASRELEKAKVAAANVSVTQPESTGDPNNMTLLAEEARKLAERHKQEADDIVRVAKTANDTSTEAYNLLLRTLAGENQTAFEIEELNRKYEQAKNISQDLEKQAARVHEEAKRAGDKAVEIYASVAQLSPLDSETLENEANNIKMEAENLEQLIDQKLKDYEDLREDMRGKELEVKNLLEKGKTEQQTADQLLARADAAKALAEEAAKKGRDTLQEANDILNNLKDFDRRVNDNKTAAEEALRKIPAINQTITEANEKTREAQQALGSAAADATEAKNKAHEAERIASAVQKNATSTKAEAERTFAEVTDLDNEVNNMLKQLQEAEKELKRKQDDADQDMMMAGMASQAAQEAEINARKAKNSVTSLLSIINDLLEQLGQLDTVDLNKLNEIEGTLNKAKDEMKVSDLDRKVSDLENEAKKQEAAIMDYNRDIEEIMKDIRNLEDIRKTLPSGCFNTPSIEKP
UniProt Q9NR30: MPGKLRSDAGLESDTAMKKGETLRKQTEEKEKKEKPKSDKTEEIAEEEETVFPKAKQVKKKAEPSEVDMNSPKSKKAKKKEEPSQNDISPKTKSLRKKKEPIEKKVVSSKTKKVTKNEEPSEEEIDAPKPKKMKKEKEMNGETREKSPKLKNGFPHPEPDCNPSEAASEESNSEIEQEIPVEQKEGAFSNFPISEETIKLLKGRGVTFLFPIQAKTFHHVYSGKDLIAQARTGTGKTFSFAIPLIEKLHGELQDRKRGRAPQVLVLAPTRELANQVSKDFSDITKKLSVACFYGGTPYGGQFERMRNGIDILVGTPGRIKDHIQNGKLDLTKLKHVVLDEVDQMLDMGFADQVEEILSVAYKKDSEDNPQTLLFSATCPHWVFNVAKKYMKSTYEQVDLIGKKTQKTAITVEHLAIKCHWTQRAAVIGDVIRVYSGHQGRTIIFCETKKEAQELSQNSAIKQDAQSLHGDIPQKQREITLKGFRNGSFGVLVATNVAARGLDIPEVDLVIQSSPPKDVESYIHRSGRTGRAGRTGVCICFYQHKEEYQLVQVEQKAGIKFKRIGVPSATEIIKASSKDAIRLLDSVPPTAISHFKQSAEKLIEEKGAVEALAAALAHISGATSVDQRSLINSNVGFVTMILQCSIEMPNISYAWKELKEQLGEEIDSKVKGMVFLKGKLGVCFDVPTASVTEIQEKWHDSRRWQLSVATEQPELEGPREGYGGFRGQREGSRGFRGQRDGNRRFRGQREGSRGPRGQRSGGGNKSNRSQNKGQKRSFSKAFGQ
UniProt P26641: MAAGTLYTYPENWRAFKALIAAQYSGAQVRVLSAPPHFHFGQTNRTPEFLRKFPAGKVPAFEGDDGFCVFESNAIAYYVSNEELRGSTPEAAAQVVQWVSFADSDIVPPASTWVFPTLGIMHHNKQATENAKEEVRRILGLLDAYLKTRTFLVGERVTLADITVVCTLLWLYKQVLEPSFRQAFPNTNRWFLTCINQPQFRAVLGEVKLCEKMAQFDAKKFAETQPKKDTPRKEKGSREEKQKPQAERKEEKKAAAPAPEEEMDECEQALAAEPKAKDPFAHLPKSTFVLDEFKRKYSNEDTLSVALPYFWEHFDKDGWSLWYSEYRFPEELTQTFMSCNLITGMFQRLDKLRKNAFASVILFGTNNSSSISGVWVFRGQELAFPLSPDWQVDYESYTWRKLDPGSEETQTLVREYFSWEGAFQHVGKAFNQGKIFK
UniProt P29692: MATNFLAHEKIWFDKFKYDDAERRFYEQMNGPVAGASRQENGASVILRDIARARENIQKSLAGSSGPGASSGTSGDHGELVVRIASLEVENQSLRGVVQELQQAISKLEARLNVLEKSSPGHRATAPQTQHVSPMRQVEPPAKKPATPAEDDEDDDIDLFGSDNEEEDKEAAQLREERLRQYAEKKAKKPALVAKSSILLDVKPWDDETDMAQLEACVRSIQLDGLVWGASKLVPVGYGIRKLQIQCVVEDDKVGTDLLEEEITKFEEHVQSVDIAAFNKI

According to article PMC10409943:

Biological target: growth hormone receptor (human (endogenous in RL95-2)) (UniProt P10912)
Test: affinity purification with mass spectrometry; RL95-2 whole cell lysates (1 mg/ml), cells serum-starved and treated with or without 500 ng/ml GH; precipitated separately with anti-GHRIC and anti-GHREC antibodies on protein-G magnetic beads, eluates combined; peptides found in the IgG control filtered out; n = 3 per group

| Molecule | binding |
| --- | --- |
| MYL6 (from UniProt P60660 1-151) | binds |
| Eukaryotic translation elongation factor 1 alpha-1 (from UniProt P68104 1-462) | binds |
| PSMD6 (from UniProt Q15008 1-389) | binds |
| CAD (from UniProt P27708 1-2225) | binds |
| USP5 (from UniProt P45974 1-858) | binds |
| FLNA (from UniProt P21333 1-2647) | binds |
| Epidermal growth factor receptor (from UniProt P00533 25-1210) | binds |
| EIF5A (from UniProt P63241 1-154) | binds |
| HSPA8 (from UniProt P11142 1-646) | binds |
| RCC2 (from UniProt Q9P258 1-522) | binds |
| PLIN3 (protein, UniProt O60664 1-434) MSADGAEADGSTQVTVEEPVQQPSVVDRVASMPLISSTCDMVSAAYASTKESYPHIKTVCDAAEKGVRTLTAAAVSGAQPILSKLEPQIASASEYAHRGLDKLEENLPILQQPTEKVLADTKELVSSKVSGAQEMVSSAKDTVATQLSEAVDATRGAVQSGVDKTKSVVTGGVQSVMGSRLGQMVLSGVDTVLGKSEEWADNHLPLTDAELARIATSLDGFDVASVQQQRQEQSYFVRLGSLSERLRQHAYEHSLGKLRATKQRAQEALLQLSQVLSLMETVKQGVDQKLVEGQEKLHQMWLSWNQKQLQGPEKEPPKPEQVESRALTMFRDIAQQLQATCTSLGSSIQGLPTNVKDQVQQARRQVEDLQATFSSIHSFQDLSSSILAQSRERVASAREALDHMVEYVAQNTPVTWLVGPFAPGITEKAPEEKK | binds |
| RCN1 (protein, UniProt Q15293 30-331) KPTVRKERVVRPDSELGERPPEDNQSFQYDHEAFLGKEDSKTFDQLTPDESKERLGKIVDRIDNDGDGFVTTEELKTWIKRVQKRYIFDNVAKVWKDYDRDKDDKISWEEYKQATYGYYLGNPAEFHDSSDHHTFKKMLPRDERRFKAADLNGDLTATREEFTAFLHPEEFEHMKEIVVLETLEDIDKNGDGFVDQDEYIADMFSHEENGPEPDWVLSEREQFNEFRDLNKDGKLDKDEIRHWILPQDYDHAQAEARHLVYESDKNKDEKLTKEEILENWNMFVGSQATNYGEDLTKNHDEL | binds |
| ITIH3 (protein, UniProt Q06033 35-651) LPEGVANGIEVYSTKINSKVTSRFAHNVVTMRAVNRADTAKEVSFDVELPKTAFITNFTLTIDGVTYPGNVKEKEVAKKQYEKAVSQGKTAGLVKASGRKLEKFTVSVNVAAGSKVTFELTYEELLKRHKGKYEMYLKVQPKQLVKHFEIEVDIFEPQGISMLDAEASFITNDLLGSALTKSFSGKKGHVSFKPSLDQQRSCPTCTDSLLNGDFTITYDVNRESPGNVQIVNGYFVHFFAPQGLPVVPKNVAFVIDISGSMAGRKLEQTKEALLRILEDMQEEDYLNFILFSGDVSTWKEHLVQATPENLQEARTFVKSMEDKGMTNINDGLLRGISMLNKAREEHRIPERSTSIVIMLTDGDANVGESRPEKIQENVRNAIGGKFPLYNLGFGNNLNYNFLENMALENHGFARRIYEDSDADLQLQGFYEEVANPLLTGVEMEYPENAILDLTQNTYQHFYDGSEIVVAGRLVDEDMNSFKADVKGHGATNDLTFTEEVDMKEMEKALQERDYIFGNYIERLWAYLTIEQLLEKRKNAHGEEKENLTARALDLSLKYHFVTPLTSMVVTKPEDNEDERAIADKPGEDAEATPVSPAMSYLTSYQPPQNPYYYVDGD | binds |

More lines, now with the values ahead:

| binding | Molecule |
| --- | --- |
| binds | PFDN6 (from UniProt O15212 1-129) |
| binds | HSPA4 (from UniProt P34932 1-840) |
| binds | PFDN2 (from UniProt Q9UHV9 1-154) |
| binds | SHTN1 (from UniProt A0MZ66 1-631) |
| binds | LAMC1 (from UniProt P11047 34-1609) |
| binds | DDX21 (from UniProt Q9NR30 1-783) |
| binds | Eukaryotic Translation Elongation Factor 1 Gamma (from UniProt P26641 1-437) |
| binds | EEF1D (from UniProt P29692 1-281) |
| binds | LASP1 (protein, UniProt Q14847 1-261) MNPNCARCGKIVYPTEKVNCLDKFWHKACFHCETCKMTLNMKNYKGYEKKPYCNAHYPKQSFTMVADTPENLRLKQQSELQSQVRYKEEFEKNKGKGFSVVADTPELQRIKKTQDQISNIKYHEEFEKSRMGPSGGEGMEPERRDSQDGSSYRRPLEQQQPHHIPTSAPVYQQPQQQPVAQSYGGYKEPAAPVSIQRSAPGGGGKRYRAVYDYSAADEDEVSFQDGDTIVNVQQIDDGWMYGTVERTGDTGMLPANYVEAI |
| binds | CRIP2 (protein, UniProt P52943 1-208) MASKCPKCDKTVYFAEKVSSLGKDWHKFCLKCERCSKTLTPGGHAEHDGKPFCHKPCYATLFGPKGVNIGGAGSYIYEKPLAEGPQVTGPIEVPAARAEERKASGPPKGPSRASSVTTFTGEPNTCPRCSKKVYFAEKVTSLGKDWHRPCLRCERCGKTLTPGGHAEHDGQPYCHKPCYGILFGPKGVNTGAVGSYIYDRDPEGKVQP |
| binds | TES (protein, UniProt Q9UGI8 1-421) MDLENKVKKMGLGHEQGFGAPCLKCKEKCEGFELHFWRKICRNCKCGQEEHDVLLSNEEDRKVGKLFEDTKYTTLIAKLKSDGIPMYKRNVMILTNPVAAKKNVSINTVTYEWAPPVQNQALARQYMQMLPKEKQPVAGSEGAQYRKKQLAKQLPAHDQDPSKCHELSPREVKEMEQFVKKYKSEALGVGDVKLPCEMDAQGPKQMNIPGGDRSTPAAVGAMEDKSAEHKRTQYSCYCCKLSMKEGDPAIYAERAGYDKLWHPACFVCSTCHELLVDMIYFWKNEKLYCGRHYCDSEKPRCAGCDELIFSNEYTQAENQNWHLKHFCCFDCDSILAGEIYVMVNDKPVCKPCYVKNHAVVCQGCHNAIDPEVQRVTYNNFSWHASTECFLCSCCSKCLIGQKFMPVEGMVFCSVECKKRMS |
| binds | RPN1 (protein, UniProt P04843 24-607) ASSEAPPLINEDVKRTVDLSSHLAKVTAEVVLAHLGGGSTSRATSFLLALEPELEARLAHLGVQVKGEDEEENNLEVRETKIKGKSGRFFTVKLPVALDPGAKISVIVETVYTHVLHPYPTQITQSEKQFVVFEGNHYFYSPYPTKTQTMRVKLASRNVESYTKLGNPTRSEDLLDYGPFRDVPAYSQDTFKVHYENNSPFLTITSMTRVIEVSHWGNIAVEENVDLKHTGAVLKGPFSRYDYQRQPDSGISSIRSFKTILPAAAQDVYYRDEIGNVSTSHLLILDDSVEMEIRPRFPLFGGWKTHYIVGYNLPSYEYLYNLGDQYALKMRFVDHVFDEQVIDSLTVKIILPEGAKNIEIDSPYEISRAPDELHYTYLDTFGRPVIVAYKKNLVEQHIQDIVVHYTFNKVLMLQEPLLVVAAFYILFFTVIIYVRLDFSITKDPAAEARMKVACITEQVLTLVNKRIGLYRHFDETVNRYKQSRDISTLNSGKKSLETEHKALTSEIALLQSRLKTEGSDLCDRVSEMQKLDAQVKELVLKSAVEAERLVAGKLKKDTYIENEKLISGKRQELVTKIDHILDAL |

Results are given in words; binding and its absence hold for the method and conditions named. In cells and extracts the contact can be indirect. Here binding means that the protein was enriched with, or labelled near, the bait; the list need not be complete.
